At least one read-out could not be matched to a standard name with certainty.
What was measured:
[1] = tested on: carrageenin-induced rat-paw oedema; experiment: Carrageenin-oedema Test; format: in vivo; conditions: for % inhibition of oedema 3 hrs: rat, p.o. 1 hour before carrageenin, mg/kg parent/ester: indomethacin 5.0/6.6, diclofenac 4.0/5.6, acetylsalicylic acid 100.0/164.0, ibuprofen 25.0/39.0, naproxen 20.0/30.0
[2] = tested on: adjuvant-injected rat-paw oedema; experiment: Adjuvant arthritis test (chronic inflammation); format: in vivo; conditions: Day 31 after 10 daily p.o. doses, mg/kg parent/ester: indomethacin 2.0/2.6, diclofenac 2.0/2.8, acetylsalicylic acid 200.0/330.0, ibuprofen 60.0/94.0, naproxen 10.0/15.1; for Mean paw swelling: control 15.3

| Compound | % inhibition of oedema 3 hrs [1] [%] | % inhibition of swelling compared to controls [2] [%] | Mean paw swelling [2] | % activity vs. parent compound ([1]; oedema inhibition at 3 hrs, relative to parent, doses as % inhibition) [%] |
| --- | --- | --- | --- | --- |
| CC(=O)Oc1ccccc1C(=O)O [Aspirin, 2-(acetyloxy)benzoic acid, reference compound] | 31.4 | 22.9 | 11.8 m units read off micrometer |  |
| O=C(O)Cc1ccccc1Nc1c(Cl)cccc1Cl [Diclofenac, reference compound] | 39.3 | 34.6 | 10.0 m units read off micrometer | 100 |
| COc1ccc2c(c1)c(CC(=O)O)c(C)n2C(=O)c1ccc(Cl)cc1 [Indomethacin, reference compound] | 65.1 | 34.0 | 10.1 m units read off micrometer |  |

Source: patent publication US4851426A, “Ethoxycarbonyloxy ethyl esters of non-steroidal anti-inflammatory carboxylic acids and pharmaceutical compositions thereof” (Teva Pharmaceutical Industries, Ltd., priority 1982, dated 1989)
